Measured values as given in PubChem BioAssay AID248 (DTP/NCI, 2004).
The list is a part of this screen's results and no random one: it gathers tests that were run many times, whatever their T/C, doses with no T/C, and many T/C values between a quarter and a half above the control. Further doses and runs are listed elsewhere. T/C gives the treated animals as a percentage of the vehicle group. Some doses have a count of surviving animals in place of a T/C: the source files T/C as zero there, which appears to mark a toxic dose or a test without result, not a measured value. Survivors were counted at the toxicity check, usually on the fifth day, unless a day is given; later deaths do not show. Schedules are NCI's codes, taken here to give the interval after Q, in days (D) or hours (H), and the number of doses after X.

Tested on: L1210 leukemia ip in BDF1 mice, survival T/C
Assay: NCI In Vivo Anticancer Drug Screen. Data for tumor model L1210 Leukemia (intraperitoneal) in B6D2F1 (BDF1) mice
Conditions: T/C endpoint: mean survival time; dose: 400.0 mg/kg/injection; schedule: Q01DX015 (ip); vehicle: methylcellulose (MC); higher T/C = longer survival

With `O=C(Nc1ccccc1)N(O)c1ccccc1` the survivor count was 2 of 6.
